The other results are listed elsewhere or left out.

The chains behind the UniProt entries cited, without tags or fusion partners. Where a name states a change or a piece, a line headed by the entry shows the natural chain unless it says otherwise.
UniProt P35610: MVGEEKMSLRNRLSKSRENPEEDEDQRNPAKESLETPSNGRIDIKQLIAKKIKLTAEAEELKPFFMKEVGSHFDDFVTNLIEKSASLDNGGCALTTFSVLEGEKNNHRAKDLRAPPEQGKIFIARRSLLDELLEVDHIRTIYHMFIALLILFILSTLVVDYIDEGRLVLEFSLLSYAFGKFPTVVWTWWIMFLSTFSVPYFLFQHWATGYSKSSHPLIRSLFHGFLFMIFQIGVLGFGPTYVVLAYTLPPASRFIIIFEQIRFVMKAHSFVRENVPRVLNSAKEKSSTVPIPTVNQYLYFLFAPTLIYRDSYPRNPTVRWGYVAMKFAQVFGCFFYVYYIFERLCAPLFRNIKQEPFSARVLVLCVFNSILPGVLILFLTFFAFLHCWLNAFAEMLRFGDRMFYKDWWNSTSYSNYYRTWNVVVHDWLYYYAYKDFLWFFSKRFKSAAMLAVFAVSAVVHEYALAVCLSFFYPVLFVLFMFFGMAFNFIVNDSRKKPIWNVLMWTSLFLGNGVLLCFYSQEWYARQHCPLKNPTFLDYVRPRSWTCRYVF
UniProt Q8NDV3: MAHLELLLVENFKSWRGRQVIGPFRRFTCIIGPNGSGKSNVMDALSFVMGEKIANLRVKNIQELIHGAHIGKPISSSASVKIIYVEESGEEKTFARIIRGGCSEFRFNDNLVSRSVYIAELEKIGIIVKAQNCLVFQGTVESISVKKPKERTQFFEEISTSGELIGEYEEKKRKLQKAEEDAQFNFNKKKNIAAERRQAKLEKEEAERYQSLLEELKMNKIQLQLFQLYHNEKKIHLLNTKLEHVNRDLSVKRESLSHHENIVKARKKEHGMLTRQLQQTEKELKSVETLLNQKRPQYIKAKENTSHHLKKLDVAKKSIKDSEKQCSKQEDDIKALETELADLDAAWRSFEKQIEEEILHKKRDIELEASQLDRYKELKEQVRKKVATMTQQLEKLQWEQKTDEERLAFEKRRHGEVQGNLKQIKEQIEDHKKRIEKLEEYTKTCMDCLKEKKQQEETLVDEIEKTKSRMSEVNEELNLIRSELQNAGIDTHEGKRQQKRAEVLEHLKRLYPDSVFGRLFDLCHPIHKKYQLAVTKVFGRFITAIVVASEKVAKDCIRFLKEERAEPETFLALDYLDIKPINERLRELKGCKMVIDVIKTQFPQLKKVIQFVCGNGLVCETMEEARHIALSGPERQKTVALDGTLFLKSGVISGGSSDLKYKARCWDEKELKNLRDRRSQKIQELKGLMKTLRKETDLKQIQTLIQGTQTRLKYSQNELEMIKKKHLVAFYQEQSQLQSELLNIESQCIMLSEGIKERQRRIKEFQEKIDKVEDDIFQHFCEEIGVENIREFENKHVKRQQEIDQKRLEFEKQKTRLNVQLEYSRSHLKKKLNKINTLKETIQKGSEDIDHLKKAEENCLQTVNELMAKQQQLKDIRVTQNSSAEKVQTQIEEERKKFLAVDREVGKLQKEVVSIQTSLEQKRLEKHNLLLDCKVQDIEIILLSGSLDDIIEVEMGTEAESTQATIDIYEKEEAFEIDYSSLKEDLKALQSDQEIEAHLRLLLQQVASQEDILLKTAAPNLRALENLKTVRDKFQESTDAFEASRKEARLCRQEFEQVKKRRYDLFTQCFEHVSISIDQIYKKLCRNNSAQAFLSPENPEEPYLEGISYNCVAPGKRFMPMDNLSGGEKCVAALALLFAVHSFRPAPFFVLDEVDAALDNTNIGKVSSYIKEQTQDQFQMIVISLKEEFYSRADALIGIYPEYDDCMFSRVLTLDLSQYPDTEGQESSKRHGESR

In the supplement of paper PMC10849652 one finds log2 fold change data, which are given here for two targets.

Common to all, as to test: log2 fold change, soluble protein after heating vs DMSO (PISA); higher = thermal stabilisation; K562 cells, 10 uM, 30 min; active = over 0.2 and 3.5 SD of the protein, either way, in both replicates (recomputed)
Compound in experiment [1]: C1=CC=C(C=C1)[C@H](COC2=CC3=C(C=C2)NC(=O)N3)NC(=O)C4=CC=CN(C4=O)CC5=CC(=C(C=C5)F)F
The method, boiled down:
(§1)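 Quantification of soluble protein used TMTpro 16plex LC-MS/MS, with channel sums equalised. Samples were the supernatant after 21,000xg for 90 min of pooled aliquots from K562 cells (2×10^6 cells/mL) treated with 10 μM compound for 30 min, heated for 3 min over 48°C-58°C, and extracted in PBS with 0.5% NP-40 at 4°C. Values, from duplicates, describe thermal stability against control samples on a log2 fold-change scale.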

Compound in experiment [2]: CC1=C(SC2=C1C(=N[C@H](C3=NN=C(N32)C)CC(=O)N)C4=CC=C(C=C4)Cl)C
Put shortly: as §1

Compound in experiment [3]: CC1=C2C(=CC=C1)N=C(N(C2=O)C3=CC=CC=C3C)CN4C=NC5=C(N=CN=C54)N
The method, boiled down:
as §1

Compound in experiment [4]: Cc1sc2c(c1C)C(c1ccc(Cl)cc1)=N[C@@H](CC(=O)OC(C)(C)C)c1nnc(C)n1-2
The method, boiled down: as §1

Compound in experiment [5]: c1ccc([C@@H]2C[C@H]2NC2CCNCC2)cc1
Put shortly: as §1

As for SOAT1 (UniProt P35610), the log2 fold change in experiment [1] is inactive: -0.023; in experiment [2], inactive: 0.037; in experiment [3], inactive: 0.071; in experiment [4], active: 0.802; in experiment [5], inactive: 0.001.

SMC1B isoform 3 (UniProt Q8NDV3): the log2 fold change in experiment [1] was inactive: 0.115; in experiment [2], inactive: 0.012; in experiment [3] it was inactive: 0.124; in experiment [4], inactive: 0.021; in experiment [5] it was inactive: 0.058.
